## Primary screen of a compound library

Chains of the proteins cited; added tags and fusions are not shown. Residues count along the entry.
UniProt Q4DA54, 1-478: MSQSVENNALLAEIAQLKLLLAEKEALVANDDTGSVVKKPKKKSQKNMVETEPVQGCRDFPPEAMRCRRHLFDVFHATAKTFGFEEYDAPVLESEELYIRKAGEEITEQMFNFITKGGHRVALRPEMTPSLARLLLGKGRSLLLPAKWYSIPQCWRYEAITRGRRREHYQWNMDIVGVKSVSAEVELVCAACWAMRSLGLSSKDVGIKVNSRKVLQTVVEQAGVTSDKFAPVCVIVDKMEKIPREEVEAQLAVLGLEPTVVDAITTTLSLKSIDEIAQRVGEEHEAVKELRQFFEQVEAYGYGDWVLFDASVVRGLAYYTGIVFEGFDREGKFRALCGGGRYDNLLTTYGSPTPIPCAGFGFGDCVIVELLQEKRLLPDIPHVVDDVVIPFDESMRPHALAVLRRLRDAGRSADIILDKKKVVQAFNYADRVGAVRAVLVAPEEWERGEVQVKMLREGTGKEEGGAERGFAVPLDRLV
UniProt A4I591, 1-473: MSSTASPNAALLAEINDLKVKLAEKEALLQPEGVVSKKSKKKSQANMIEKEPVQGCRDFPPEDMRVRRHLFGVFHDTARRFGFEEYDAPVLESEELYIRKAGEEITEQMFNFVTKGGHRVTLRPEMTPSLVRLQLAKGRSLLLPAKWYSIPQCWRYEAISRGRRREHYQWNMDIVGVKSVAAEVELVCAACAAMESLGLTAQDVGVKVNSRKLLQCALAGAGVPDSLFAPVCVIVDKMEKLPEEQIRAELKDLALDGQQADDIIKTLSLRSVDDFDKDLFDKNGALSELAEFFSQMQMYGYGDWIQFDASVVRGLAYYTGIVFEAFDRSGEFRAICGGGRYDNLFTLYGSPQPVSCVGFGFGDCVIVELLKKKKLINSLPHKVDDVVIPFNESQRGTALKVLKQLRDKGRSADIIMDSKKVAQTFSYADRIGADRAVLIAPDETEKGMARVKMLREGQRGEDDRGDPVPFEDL

From ChEMBL document CHEMBL3988442, “University of Dundee, Small-Polar-MMV Screening Library” (2021).

Toxoplasma: 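Assay of Toxoplasma gondii numbers, read through their beta-galactosidase reporter with a colour substrate. Compounds at 10 µM. The record gives no direction; the compounds picked for IC50 retests had high values, so higher reads as fewer parasites. About 67,000 compounds were tested under these conditions; 0.38% (about 260) showed 50% or more at least once.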
TcHisRS: 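Histidine-tRNA ligase, Trypanosoma cruzi CL Brener (UniProt Q4DA54). Enzyme assay of histidyl-tRNA synthetase; the read-out is not stated. Tested at 30 µM. Higher reads as stronger inhibition (inferred: compounds with an IC50 in retests scored well above the rest). Size under these conditions: about 69,000 compounds, about 31 of them at 50% or above in at least one test.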
LiHisRS: 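Histidine-tRNA ligase, Leishmania infantum (UniProt A4I591). Enzyme assay of histidyl-tRNA synthetase; the read-out is not stated. Compounds at 30 µM. Direction is inferred from retests: higher values go with stronger inhibition. The assay is labelled LdHisRS but filed under L. infantum. Size under these conditions: about 69,000 compounds, about 410 of them at 50% or above in at least one test.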
T. brucei: 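Whole-parasite assay of Trypanosoma brucei over 72 hours; the read-out is not stated. Concentration: 30 µM. The record gives no direction; compounds that gave an IC50 in retests scored well above the rest, so higher reads as stronger inhibition. Values scatter widely below zero; nearly all retest evidence comes from the higher of the two concentrations used. Of about 64,000 compounds tested this way, about 940 (1.5%) reached 50% or more in at least one test.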

Values are the deposited “Percent Effect”, in %.
The controls that fix the scale are not given in the record; negative values are as filed.
The compounds are a random part of those screened.
A dash means the value is not listed here; it may have been measured.

| structure | Toxoplasma | TcHisRS | LiHisRS | T. brucei |
|---|---|---|---|---|
| `CC(=O)N1CCCC2(C1)CN(C(=O)c1ccncc1)CCO2` (centres undefined) | -16.92 | 3.922 | 10 | -291.5 |
| `[H][C@]12CC[C@]([H])(CN(C(=O)N(C)C)C1)N(C(=O)c1c(Cl)cccc1Cl)C2` | -4.364 | - | - | -16.94 |
| `CN1CCOC(C(=O)Nc2nc(-c3ccc4c(c3)CCC4)n[nH]2)C1` (centres undefined) | 2.378 | 3.448 | 3.947 | -64.42 |
| `Cc1nc(C)n(CC2CCCN(CC(=O)NC3CCOCC3)C2)n1` (centres undefined) | -5.411 | 5.187 | 5.357 | -16.6 |
| `O=C(NC[C@H]1OC[C@@H](NC2COC2)[C@@H]1O)c1ccccc1` | -5.7 | 7.609 | 22.97 | -7.374 |
| `Cc1nncn1CCNC(=O)C(C)(C)c1cccc(C(F)(F)F)c1` | -1.801 | 4.202 | 21.05 | -10.08 |
| `Cc1cc(F)ccc1C(=O)N1C[C@@H]2COC[C@]2(COCC2CC2)C1` | - | 4.908 | 11.97 | - |
| `COc1ccc(C(=O)NCCc2nnc3ccccn23)c(OC)c1` | 6.32 | 1.132 | -2.667 | -50.36 |
| `O=C(CCSc1ccc(F)cc1)NS(=O)(=O)c1ccc2c(c1)OCCO2` | -1.128 | -9.16 | 2.128 | -8.878 |
| `CCc1nnc2n1CCN(Cc1ccc3c(c1)OCCO3)C2` | 0 | 1.149 | 15.38 | -38.48 |
| `Cc1cc(CN2C[C@@H]3COC[C@]3(CNC(=O)N3CCCC3)C2)no1` | - | 6.897 | 11.76 | - |
| `COCC1(C(=O)N2CCC(c3nccn3CC3CC3)CC2)CCC1` | 14.92 | 3.518 | 12 | -33.74 |
| `O=C(Nc1cn[nH]c1)N1CCN(CCSc2ccccc2)CC1` | 23.94 | 0 | 17.24 | -16.58 |
| `O=C(NCc1cccs1)c1nc2c(o1)CN(c1ncccn1)C2` | -10.73 | -2.532 | 10.34 | -50.04 |
| `CC(=O)NCCC1CCCCN1S(=O)(=O)c1ccc2ccccc2c1` (centres undefined) | -16.09 | 8.04 | 22.34 | -14.32 |
| `CCOCCCNC(=O)C1(C)CCC(=O)N1c1cc(OC)ccc1OC` (centres undefined) | -4.961 | 3 | 10.96 | 38.1 |
| `CC(Oc1ccc(F)c(F)c1)C(=O)N(CC(N)=O)C1CCCC1` (centres undefined) | 7.458 | 3.061 | 3.226 | -34.06 |
| `COc1ccc(C2=CCN(C(=O)C3CCS(=O)(=O)C3)CC2)cc1` (centres undefined) | -1.678 | 2.312 | 13.39 | -9.792 |
| `CC(C)[C@@H]1CN(C(=O)NCc2ccco2)C[C@H]1NS(=O)(=O)N(C)C` | -5.936 | 3.947 | -2.5 | -26.52 |
| `c1ccc2c(c1)OCCCC2NCc1nnc2n1CCCCC2` (centres undefined) | -3.435 | 4.233 | 3.03 | -20.7 |
| `COc1c(CNCc2nnc3n2CCCCC3)c(C(C)C)nn1C` | - | 7.065 | 0 | - |
| `COCCN(CC(C)C)C(=O)c1cccc(Nc2cnccn2)c1` | 19.82 | 1 | 4.348 | -14.07 |
| `Br.Cn1cc(CN2CCOC(c3cccc(-c4cncnc4)n3)C2)cn1` (centres undefined) | 23.06 | - | - | -22.94 |
| `CN(Cc1csc(-c2cccs2)n1)Cc1ncccc1C(=O)O` | -24.09 | 5.455 | 4.444 | -58.65 |
| `Cc1nc(C)n(CC2CN(Cc3cccnc3)Cc3nccn3C2)n1` (centres undefined) | - | 7.609 | -6.579 | - |
| `CCOC(=O)CC(c1ccc(OC)cc1)c1c(O)n[nH]c1C` (centres undefined) | -0.599 | 3.093 | 5.495 | -0.1891 |
| `COC1CC2(CCN(Cc3ccc4c(c3)OCO4)CC2)C1` | 4.224 | 5.263 | 12.2 | -12.83 |
| `O=C([C@H]1COC[C@H]2CN(CC3CC3)C[C@H]21)N1CCOCC1` | - | -1.266 | 10.34 | - |
| `c1ncn(Cc2cnc3n2CCN(Cc2ccsc2)CC3)n1` | - | 7.104 | 9.489 | - |
| `Cc1oc(-c2ccoc2)nc1CN1CCCCC1CCc1ccccc1` (centres undefined) | -14.19 | 3.518 | 15.2 | -11.79 |
| `[H][C@@]12COC[C@]1(COc1ccc(C#N)cn1)CN(c1ncccn1)C2` | 0.09997 | - | - | -8.241 |
| `COc1ccc(S(=O)(=O)NC(=O)COC2CCCC2)cc1` | 14.48 | 4.023 | 3.478 | -3.449 |
| `CC1N(C)C(=O)COC12CCN(Cc1ccsc1)CC2.O=C(O)C(F)(F)F` (centres undefined) | -2.319 | - | - | -37.82 |
| `O=C(Nc1cccnc1-n1cc(Cl)cn1)C1CCCC1` | -3.423 | -0.5848 | 21.05 | -31.92 |
| `CC(C)c1nc(-c2cc(C(=O)N3CCN(C)CC3)c3ccccn23)cs1.O=C(O)C(F)(F)F` | -5.021 | - | - | -41.58 |
| `O=C(C1CCCOC1)N1CCCCc2ccccc21` (centres undefined) | -1.795 | 2.618 | 5.172 | -63.52 |
| `CCn1nc(C)c(CNC(=O)NCC(C)(O)c2ccc(C)o2)c1C` (centres undefined) | -1.89 | 0.4926 | 11.69 | 12.62 |
| `CCc1sc(C(=O)Nc2cnn(CCN(C)C)c2)cc1C` | -2.301 | 0 | 22.22 | 21.66 |
| `CCCC(=O)Nc1cc2c(cc1OC)NC(=O)CC2c1ccc(CC)o1` (centres undefined) | -13.07 | 8.081 | 13.83 | -16.67 |
| `Cc1noc(CN2CCC(c3ccnn3CCO)CC2)n1` | - | 0.7519 | -23.6 | -6.772 |
| `CC1CCN(Cc2cc(=O)[nH]c(=O)[nH]2)CC1` | 9.359 | -3.665 | 8.621 | -16.55 |
| `COCCn1cc(C(=O)N2CCCC2c2noc(C)n2)ccc1=O` (centres undefined) | -4.63 | -4.124 | -12.9 | -52.47 |
| `Cc1nnsc1C(=O)N1C[C@H]2CC[C@@H]1CN(c1cnccn1)C2` | - | 2.128 | -1.429 | - |
| `COCCCN1C(=O)CC[C@H]2CN(c3cc(C(N)=O)ccn3)CC[C@H]21` | - | 2.899 | 9.167 | - |
| `COc1cccc(OC2CN(C(=O)c3ccnc(OC)c3)C2)c1` | -5.77 | 17.86 | 20 | 3.698 |
| `CCS(=O)(=O)N1CCc2ccc(NC(=O)Nc3cccc(C#N)c3)cc21` | 3.726 | 1.508 | 6.742 | 29.43 |
| `CCOc1cc(C)nc(N2CCN(Cc3nccn3C)CC2)n1` | -7.618 | 2.439 | 22.12 | 0.5478 |
| `CCN(C)C(=O)c1cc(-c2ccn(C(C)C)n2)n2ccccc12` | -5.34 | 8.861 | 12.07 | -63.97 |
| `COc1ccc(NC(=O)c2nc3ccccc3n(C)c2=O)c(OC)c1` | 1.331 | 4.523 | 6.742 | -12.31 |
| `O=C(CN1CC(c2nc(C3CC3)no2)C1)N1CCOCC1.O=C(O)C(=O)O` | 76.44 | - | - | 47.84 |

Once more, the final 6:

COc1cccc(OC2CN(C(=O)c3ccnc(OC)c3)C2)c1 read Toxoplasma: -5.77%; TcHisRS: 17.86%; LiHisRS: 20%; T. brucei: 3.698%.
CCS(=O)(=O)N1CCc2ccc(NC(=O)Nc3cccc(C#N)c3)cc21 read Toxoplasma: 3.726%; TcHisRS: 1.508%; LiHisRS: 6.742%; T. brucei: 29.43%.
CCOc1cc(C)nc(N2CCN(Cc3nccn3C)CC2)n1 read Toxoplasma: -7.618%; TcHisRS: 2.439%; LiHisRS: 22.12%; T. brucei: 0.5478%.
CCN(C)C(=O)c1cc(-c2ccn(C(C)C)n2)n2ccccc12 read Toxoplasma: -5.34%; TcHisRS: 8.861%; LiHisRS: 12.07%; T. brucei: -63.97%.
COc1ccc(NC(=O)c2nc3ccccc3n(C)c2=O)c(OC)c1 read Toxoplasma: 1.331%; TcHisRS: 4.523%; LiHisRS: 6.742%; T. brucei: -12.31%.
O=C(CN1CC(c2nc(C3CC3)no2)C1)N1CCOCC1.O=C(O)C(=O)O read Toxoplasma: 76.44%; T. brucei: 47.84%.